Reference: patent US8394969B2, “Cyclic benzimidazole derivatives useful as anti-diabetic agents” (Merck Sharp & Dohme Corp., priority 2008, dated 2013)
Some entries share one result that the patent states for a list of compounds.

Chains of the proteins cited; added tags and fusions are not shown. Lines headed by an entry give the natural chain unless they say otherwise; changes in a name come on top.
UniProt Q13131: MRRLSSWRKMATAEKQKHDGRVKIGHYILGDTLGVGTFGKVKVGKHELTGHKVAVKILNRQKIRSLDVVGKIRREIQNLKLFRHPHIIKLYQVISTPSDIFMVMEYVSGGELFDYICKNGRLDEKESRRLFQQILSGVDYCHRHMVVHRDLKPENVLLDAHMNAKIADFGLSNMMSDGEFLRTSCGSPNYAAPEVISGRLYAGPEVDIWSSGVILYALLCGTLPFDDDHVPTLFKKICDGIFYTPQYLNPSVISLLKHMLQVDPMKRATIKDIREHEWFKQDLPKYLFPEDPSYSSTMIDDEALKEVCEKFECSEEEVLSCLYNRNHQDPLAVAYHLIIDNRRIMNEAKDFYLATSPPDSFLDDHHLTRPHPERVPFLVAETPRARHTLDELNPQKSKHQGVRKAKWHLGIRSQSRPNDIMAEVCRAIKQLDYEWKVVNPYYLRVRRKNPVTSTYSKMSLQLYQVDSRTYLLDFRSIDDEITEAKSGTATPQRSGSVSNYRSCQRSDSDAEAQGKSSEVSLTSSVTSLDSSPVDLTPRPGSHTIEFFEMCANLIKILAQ
UniProt Q9Y478: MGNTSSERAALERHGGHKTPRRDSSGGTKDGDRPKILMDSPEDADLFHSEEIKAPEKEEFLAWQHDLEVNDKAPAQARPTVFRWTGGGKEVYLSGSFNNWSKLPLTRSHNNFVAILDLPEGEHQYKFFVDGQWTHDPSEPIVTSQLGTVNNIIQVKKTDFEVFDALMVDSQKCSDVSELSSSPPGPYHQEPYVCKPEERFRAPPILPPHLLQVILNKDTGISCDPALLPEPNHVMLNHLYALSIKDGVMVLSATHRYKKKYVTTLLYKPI

Target: recombinant human AMPK complex 1 (containing α1β1γ1) (Homo sapiens, UniProt Q13131+Q9Y478)
Test: […] (in vitro AMPK activation assay)
Format: biochemical
Details: recombinant human AMPK complex 1 (α1β1γ1)

| SMILES | EC50 [µM] | % Maximum AMP Activation of human AMPK Complex 1 (basal activity subtracted) |
| --- | --- | --- |
| COC(=O)Cn1c(Oc2ccc(C)c(C(=O)OC)c2)nc2cc(-c3ccc(-c4ccccc4)cc3)c(Cl)cc21 [Example 223, 5-(5-Biphenyl-4-yl-6-chloro-1-methoxycarbonyl-methyl-1H-benzoimidazol-2-yloxy)-2-methyl-benzoic acid methyl ester] | < 10 | – |
| Cc1ccc(Oc2nc3cc(-c4ccc(-c5ccccc5)cc4)c(Cl)cc3n2CC(=O)O)cc1C(=O)O [Example 224, 5-(5-Biphenyl-1-yl-1-carboxymethyl-6-chloro-1H-benzoimidazol-2-yloxy)-2-methyl-benzoic acid] | < 10 | – |
| CS(=O)(=O)NC(=O)c1cccc(Oc2nc3cc(-c4ccc(-c5ccccc5)cc4)c(Cl)cc3[nH]2)c1 [Example 225, N-[3-(5-Biphenyl-4-yl-6-chloro-1H-benzoimidazol-2-yloxy)-benzoyl]-methanesulfonamide] | < 10 | – |
| O=C(O)c1ccc(COc2nc3cc(-c4ccc(-c5ccccc5)cc4)c(Cl)cc3[nH]2)cc1 [Example 226, 4-(5-Biphenyl-4-yl-6-chloro-1H-benzoimidazol-2-yloxymethyl)-benzoic acid] | < 10 | – |
| O=C(O)c1cc(COc2nc3cc(-c4ccc(-c5ccccc5)cc4)c(Cl)cc3[nH]2)cc(C(=O)O)c1 [Example 227, 5-(5-Biphenyl-4-yl-6-chloro-1H-benzoimidazol-2-yloxymethyl)-isophthalic acid] | < 10 | – |
| Cc1ccc(Oc2nc3c(F)c(-c4ccc5c(ccn5C)c4)c(F)cc3[nH]2)cc1C(=O)O [Example 228, 5-[4,6-Difluoro-5-(1-methyl-1H-indol-5-yl)-1H-benzoimidazol-2-yloxy]-2-methyl-benzoic acid] | < 10 | – |
| Cc1ccc(Oc2nc3cc(-c4ccc(C5CC5)cc4)c(Cl)cc3[nH]2)cc1C(=O)O [Example 230, 5-{[6-chloro-5-(4-cyclopropylphenyl)-1H-benzimidazol-2-yl]oxy}-2-methylbenzoic acid] | < 10 | – |
| Cc1ccc(Oc2nc3cc(-c4ccc(N5CCCC5)cc4)c(Cl)cc3[nH]2)cc1C(=O)O [Example 231, 5-{[6-chloro-5-(4-pyrrolidin-1-ylphenyl)-1H-benzimidazol-2-yl]oxy}-2-methylbenzoic acid] | < 10 | – |
| Cc1ccc(Oc2nc3cc(-c4ccc(-c5ccccc5O)cc4)c(F)cc3[nH]2)cc1C(=O)O [Example 232, 5-{[6-fluoro-5-(2′-hydroxybiphenyl-4-yl)-1H-benzimidazol-2-yl]oxy}-2-methylbenzoic acid] | < 10 | – |
| Cc1ccc(Oc2nc3cc(-c4ccc5[nH]c(=O)ccc5c4)c(Cl)cc3[nH]2)cc1C(=O)O [Example 233, 5-[6-Chloro-5-(2-oxo-1,2-dihydro-quinolin-6-yl)-1H-benzoimidazol-2-yloxy]-2-methyl-benzoic acid] | < 10 | – |
| Cc1ccc(Oc2nc3cc(-c4ccc5c(ccc(=O)n5C)c4)c(Cl)cc3[nH]2)cc1C(=O)O [Example 234, 5-[6-Chloro-5-(1-methyl-2-oxo-1,2-dihydro-quinolin-6-yl)-1H-benzoimidazol-2-yloxy]-2-methyl-benzoic acid] | < 10 | – |
| Cc1ccc(Oc2nc3cc(-c4ccc5c(c4)n(C)c(=O)n5C)c(Cl)cc3[nH]2)cc1C(=O)O [Example 235, 5-(6-Chloro-1′,3′-dimethyl-2′-oxo-2′,3′-dihydro-1H,1′H-[5,5′]bibenzoimidazolyl-2-yloxy)-2-methyl-benzoic acid] | < 10 | – |
| Cc1ccc(Oc2nc3cc(-c4ccc(C(=O)N5CCC(O)CC5)cc4)c(Cl)cc3[nH]2)cc1C(=O)O [Example 236, 5-{6-Chloro-5-[4-(4-hydroxy-piperidine-1-carbonyl)-phenyl]-1H-benzoimidazol-2-yloxy}-2-methyl-benzoic acid] | < 10 | – |
| Cc1ccc(Oc2nc3cc(-c4ccc5c(c4)CCNC5=O)c(Cl)cc3[nH]2)cc1C(=O)O [Example 237, 5-[6-Chloro-5-(1-oxo-1,2,3,4-tetrahydro-isoquinolin-6-yl)-1H-benzoimidazol-2-yloxy]-2-methyl-benzoic acid] | < 10 | – |
| Cc1ccc(Oc2nc3cc(-c4ccc5ccnc(O)c5c4)c(Cl)cc3[nH]2)cc1C(=O)O [Example 238, 5-[6-Chloro-5-(1-hydroxy-isoquinolin-7-yl)-1H-benzoimidazol-2-yloxy]-2-methyl-benzoic acid] | < 10 | – |
| Cc1ccc(Oc2nc3cc(-c4ccc(C(C)(C)C#N)cc4)c(Cl)cc3[nH]2)cc1C(=O)O [Example 239, 5-{6-Chloro-5-[4-(cyano-dimethyl-methyl)-phenyl]-1H-benzoimidazol-2-yloxy}-2-methyl-benzoic acid] | < 10 | – |
| Cc1ccc(Oc2nc3cc(-c4ccc5c(C)n[nH]c5c4)c(Cl)cc3[nH]2)cc1C(=O)O [Example 240, 5-[6-Chloro-5-(3-methyl-1H-indazol-6-yl)-1H-benzoimidazol-2-yloxy]-2-methyl-benzoic acid] | < 10 | – |
| Cc1ccc(Oc2nc3cc(-c4ccc(C(=O)N(C)C)cc4)c(Cl)cc3[nH]2)cc1C(=O)O [Example 241, 5-[6-Chloro-5-(4-dimethylcarbamoyl-phenyl)-1H-benzoimidazol-2-yloxy]-2-methyl-benzoic acid] | < 10 | – |
| Cc1ccc(Oc2nc3cc(-c4ccc(C(N)=O)cc4)c(Cl)cc3[nH]2)cc1C(=O)O [Example 242, 5-[5-(4-Carbamoyl-phenyl)-6-chloro-1H-benzoimidazol-2-yloxy]-2-methyl-benzoic acid] | < 10 | – |
| Cn1ccc2cc(-c3cc4nc(Oc5ccc(CC(=O)O)cc5)[nH]c4cc3Cl)ccc21 [Example 243, {4-[6-Chloro-5-(1-methyl-1H-indol-5-yl)-1H-benzoimidazol-2-yloxy]-phenyl}-acetic acid] | < 10 | – |
| CN1CCOc2cc(-c3cc4nc(Oc5ccc(CC(=O)O)cc5)[nH]c4cc3Cl)ccc21 [Example 244, {4-[6-Chloro-5-(4-methyl-3,4-dihydro-2H-benzo[1,4]oxazin-7-yl)-1H-benzoimidazol-2-yloxy]-phenyl}-acetic acid] | < 10 | – |
| COc1ccc2cc(-c3cc4nc(Oc5ccc(CC(=O)O)cc5)[nH]c4cc3Cl)ccc2c1 [Example 245, {4-[6-Chloro-5-(6-methoxy-naphthalen-2-yl)-1H-benzoimidazol-2-yloxy]-phenyl}-acetic acid] | < 10 | – |
| Cc1ccc(Oc2nc3cc(-c4ccc(-c5ccn[nH]5)cc4)c(F)cc3[nH]2)cc1C(=O)O [Example 246, 5-{6-Fluoro-5-[4-(2H-pyrazol-3-yl)-phenyl]-1H-benzoimidazol-2-yloxy}-2-methyl-benzoic acid] | < 10 | – |
| Cc1ccc(Oc2nc3cc(-c4ccc(N5CCOCC5)cc4)c(F)cc3[nH]2)cc1C(=O)O [Example 247, 5-[6-Fluoro-5-(4-morpholin-4-yl-phenyl)-1H-benzoimidazol-2-yloxy]-2-methyl-benzoic acid] | < 10 | – |
| Cc1ccc(Oc2nc3cc(-c4ccc(-c5ccccc5O)cc4)c(F)cc3[nH]2)cc1C(=O)O [Example 248, 5-[6-Fluoro-5-(2′-hydroxy-biphenyl-4-yl)-1H-benzoimidazol-2-yloxy]-2-methyl-benzoic acid] | < 10 | greater than 80% |
| Cc1ccc(Oc2nc3cc(-c4ccc5c(ccn5C)c4)c(F)cc3[nH]2)cc1C(=O)O [Example 249, 5-[6-Fluoro-5-(1-methyl-1H-indol-5-yl)-1H-benzoimidazol-2-yloxy]-2-methyl-benzoic acid] | < 10 | – |
